Experimental data published in paper PMC5807399.
The exact form of at least one protein or probe is not confirmed. For part of these data: At least one verdict rests on a figure or table, not on a statement of the authors. Protein sequences can lack the tags named with them.

How the values were obtained:
Test in all cases: EMSA
[1] = biological target: T1, AhAL1 (Atriplex hortensis) (UniProt A0A1W5T2K2); conditions: Binding buffer, pH and temperature not stated (EMSA as previously described, or LightShift Chemiluminescent EMSA kit), 2xGTGGAG probe annealed in 50 mM NaCl, recombinant protein, residues 1-241, protein details: GST (N-terminal, pGEX-6P-1)
T1 sequence (looked up): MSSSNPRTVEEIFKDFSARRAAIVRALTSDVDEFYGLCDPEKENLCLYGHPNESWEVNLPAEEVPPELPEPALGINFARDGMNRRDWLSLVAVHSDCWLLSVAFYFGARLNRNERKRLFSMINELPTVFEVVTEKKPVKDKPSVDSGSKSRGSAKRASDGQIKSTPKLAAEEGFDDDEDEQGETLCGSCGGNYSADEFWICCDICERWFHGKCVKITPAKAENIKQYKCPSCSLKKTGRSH

[2] = biological target: T2, AhAL4 (Atriplex hortensis) (UniProt A0A2D3FB44); conditions: competed by 10x unlabeled probe; Binding buffer, pH and temperature not stated (EMSA as previously described, or LightShift Chemiluminescent EMSA kit); 2xGTGGAG probe annealed in 50 mM NaCl; recombinant protein; residues 1-253; protein details: GST (N-terminal, pGEX-6P-1); label: 32P end label
T2 sequence (looked up): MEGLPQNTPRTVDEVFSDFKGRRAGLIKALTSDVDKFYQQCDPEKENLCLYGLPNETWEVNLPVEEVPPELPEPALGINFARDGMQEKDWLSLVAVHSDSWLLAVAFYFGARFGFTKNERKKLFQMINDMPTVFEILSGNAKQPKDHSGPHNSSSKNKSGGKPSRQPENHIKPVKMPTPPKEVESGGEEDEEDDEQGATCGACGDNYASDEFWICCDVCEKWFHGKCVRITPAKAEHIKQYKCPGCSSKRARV

GmPHD4 (Glycine max) = biological target: T3, GmPHD4 (Glycine max) (UniProt I1M961); conditions: positive control; Binding buffer, pH and temperature not stated (EMSA as previously described, or LightShift Chemiluminescent EMSA kit); 2xGTGGAG probe annealed in 50 mM NaCl; recombinant protein; label: 32P end label
T3 sequence (looked up, limits assumed): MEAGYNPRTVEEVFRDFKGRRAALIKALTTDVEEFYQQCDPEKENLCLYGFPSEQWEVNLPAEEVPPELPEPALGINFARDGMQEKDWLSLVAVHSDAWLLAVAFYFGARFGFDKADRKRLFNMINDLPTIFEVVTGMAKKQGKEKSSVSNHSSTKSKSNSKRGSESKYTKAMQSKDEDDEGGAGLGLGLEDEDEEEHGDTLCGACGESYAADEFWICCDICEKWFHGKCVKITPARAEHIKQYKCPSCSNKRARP

[3] = biological target: T4, AhAL3 (Atriplex hortensis) (UniProt A0A2D3FB43); conditions: competed by 10x unlabeled probe; Binding buffer, pH and temperature not stated (EMSA as previously described, or LightShift Chemiluminescent EMSA kit); 2xGTGGAG probe annealed in 50 mM NaCl; recombinant protein; residues 1-251; protein details: GST (N-terminal, pGEX-6P-1); label: 32P end label
T4 sequence (looked up): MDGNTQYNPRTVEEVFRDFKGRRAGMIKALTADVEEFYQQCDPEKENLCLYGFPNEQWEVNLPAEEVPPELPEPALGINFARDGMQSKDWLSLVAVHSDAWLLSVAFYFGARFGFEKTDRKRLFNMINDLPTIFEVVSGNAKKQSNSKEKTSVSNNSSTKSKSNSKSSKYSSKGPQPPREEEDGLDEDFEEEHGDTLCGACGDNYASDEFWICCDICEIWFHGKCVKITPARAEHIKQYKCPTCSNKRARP

[4] = biological target: T5, AhAL2 (Atriplex hortensis) (UniProt A0A2D3FB38); conditions: competed by 10x unlabeled probe; Binding buffer, pH and temperature not stated (EMSA as previously described, or LightShift Chemiluminescent EMSA kit); 2xGTGGAG probe annealed in 50 mM NaCl; recombinant protein; residues 1-256; protein details: GST (N-terminal, pGEX-6P-1); label: 32P end label
T5 sequence (looked up): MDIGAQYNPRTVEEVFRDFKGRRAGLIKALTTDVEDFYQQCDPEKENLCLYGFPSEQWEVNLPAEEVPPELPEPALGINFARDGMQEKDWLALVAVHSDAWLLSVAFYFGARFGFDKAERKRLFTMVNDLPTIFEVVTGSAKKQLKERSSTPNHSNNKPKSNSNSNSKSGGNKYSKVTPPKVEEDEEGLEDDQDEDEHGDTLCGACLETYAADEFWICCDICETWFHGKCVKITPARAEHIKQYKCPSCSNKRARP

[5] = 100x unlabeled probe as competitor, label: 5' biotin

## CAAAACTTCTATAAAGATACCCAATAATAATGGAGGGGTGACACGATAGT (double strand) [ABI2 promoter probe]
[1]; [5]
  binding result: binds

## TATTACTAGATTTTTCTTATATGTTTTAAGGGTAGTGGGGCTGACCTATC (double strand) [AHG3 promoter probe]
[1]; [5]
  binding result: binds

## AACTTCATCTAGGTGGAGATGTATGATGTACTACTACATGTATCGTGGAGTACAACATC (double strand) [2xGTGGAG probe]
[2]
  binding result: binds
GmPHD4 (Glycine max)
  binding result: binds
[1]; competed by 10x unlabeled probe, label: 32P end label
  binding result: binds
[3]
  binding result: binds
[4]
  binding result: binds

## AGTCCATCTTTGAAATTTAAAGCTTTGTTGTGGTGTGGTGTGGAAATCTC (double strand) [HAB1 promoter probe]
[1]; [5]
  binding result: binds

## ATGAACCTTTTTTTCTTTCGATCAAATCTCTCCCGCCACCCAACTAACAC (double strand) [ABI1 promoter probe]
[1]; [5]
  binding result: binds

## CGTGGCATTCACAGAGACAGAAACTCCGCGTTCGACCCCACAAATATCCA (double strand) [DREB1C promoter probe]
[1]; [5]
  binding result: binds

## GGTCGTTGTCACATAAAGAAACTTGGGATTCCGTGGAGTGCTTATAATTT (double strand) [HAB2 promoter probe]
[1]; [5]
  binding result: binds

## CATCAATCCACAAACTAGATTCATAGAAAACATCCCCCACCGTTAGATCG (double strand) [GRF7 promoter probe]
[1]; [5]
  binding result: binds
